Data as given in the supplement of paper PMC12823440, “Inhibitors supercharge kinase turnover through native proteolytic circuits” (Nature, 2025).
Counter-ions that a name gives are not always drawn. The list shows a part of the results. Hit calls seldom repeat between salt and free forms of one compound.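 Kinases, fused to nanoluciferase, were expressed in K562 cells; luminescence was measured every 4 h from 2 to 18 h as percent of control (DMSO = 100%, positive control = 0%). A time point is decreased if signal falls significantly (2 sigma). Hits were called by the authors by a rule that is not shown; the count of time points alone does not decide it.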

Amino acid sequences for entries named in this document (tags omitted).
UniProt Q01974, whole entry: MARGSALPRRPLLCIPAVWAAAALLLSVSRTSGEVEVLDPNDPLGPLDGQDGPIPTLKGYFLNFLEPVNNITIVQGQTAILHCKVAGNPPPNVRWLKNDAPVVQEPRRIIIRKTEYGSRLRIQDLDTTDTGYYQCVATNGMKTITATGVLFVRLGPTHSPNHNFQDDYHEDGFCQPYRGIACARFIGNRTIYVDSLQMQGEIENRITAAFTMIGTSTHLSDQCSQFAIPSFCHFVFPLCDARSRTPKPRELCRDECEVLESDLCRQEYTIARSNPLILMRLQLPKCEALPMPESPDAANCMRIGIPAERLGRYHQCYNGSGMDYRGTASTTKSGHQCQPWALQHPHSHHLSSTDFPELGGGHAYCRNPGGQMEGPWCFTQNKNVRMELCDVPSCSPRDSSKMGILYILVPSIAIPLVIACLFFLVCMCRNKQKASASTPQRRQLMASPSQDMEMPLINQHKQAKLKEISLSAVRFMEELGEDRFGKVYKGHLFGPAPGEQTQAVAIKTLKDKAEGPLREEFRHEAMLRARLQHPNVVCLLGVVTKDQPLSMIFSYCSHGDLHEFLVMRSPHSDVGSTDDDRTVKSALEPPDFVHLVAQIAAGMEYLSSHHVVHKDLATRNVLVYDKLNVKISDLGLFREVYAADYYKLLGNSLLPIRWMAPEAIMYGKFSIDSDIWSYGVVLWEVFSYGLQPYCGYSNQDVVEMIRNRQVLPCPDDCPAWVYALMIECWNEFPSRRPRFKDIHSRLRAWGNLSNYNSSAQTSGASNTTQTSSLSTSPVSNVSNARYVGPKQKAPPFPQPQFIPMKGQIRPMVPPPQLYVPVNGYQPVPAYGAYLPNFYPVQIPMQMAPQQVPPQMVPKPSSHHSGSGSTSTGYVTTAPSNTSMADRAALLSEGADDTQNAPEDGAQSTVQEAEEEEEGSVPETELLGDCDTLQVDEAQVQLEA

Biological target: ROR2 (UniProt Q01974)
Assay: number of time points (of 5) at which kinase-Nluc abundance scored as decreased, DMSO-normalised (count); higher = more persistent destabilization
Details: K562; 2-18 h

SMILES	number of time points
c1ccc(-c2nc(=NCCN3CCOCC3)sn2-c2ccccc2)cc1 [VP3.15 (dihydrobromide)] (10 µM)	0
O=C1NC(=Nc2c(Cl)cccc2Cl)S/C1=C\c1ccc2nccnc2c1 (2.5 µM)	0
Cc1cc(-c2ccnc(Nc3cnn(C)c3)n2)ccc1CNC(=O)N1CC(OC(C)C)C1 (10 µM)	0
CN(C)S(=O)(=O)c1ccc2c(c1)/C(=C/c1cc3c([nH]1)CCCC3)C(=O)N2 (2.5 µM)	1
Cc1cnc(NC2CCOCC2)nc1-n1cnc(C(=O)N[C@H](CN)c2cc(F)cc(Cl)c2)c1 (10 µM)	0
N#CC(c1ccnc(OCc2ccc(CN3CCOCC3)cc2)n1)c1nc2ccccc2s1 (configuration not stated) [Bentamapimod] (2.5 µM)	0
Cc1c(-c2ccc(C(N)=O)c3[nH]c4cc(C(C)(C)O)ccc4c23)cccc1-n1cnc2ccccc2c1=O (2.5 µM)	0
CN(C)c1nc2c(Br)c(Br)c(Br)c(Br)c2[nH]1 (10 µM)	0
Nc1ncnc2c1c(-c1ccc(Oc3ccccc3)cc1)nn2C1CCN(CCOCCOCCOc2ccc3c(c2)CN(C2CCC(=O)NC2=O)C3=O)CC1 (configuration not stated) (2.5 µM)	0
O=[N+]([O-])c1ccc(Nc2nc(N3CCOCC3)nc(N3CCOCC3)n2)cc1 (10 µM)	0
C[C@H](Nc1ncnc2[nH]cnc12)c1cc2ccc(F)cc2nc1-c1ccccn1 (10 µM)	0
CCc1cccc(CC)c1NC(=O)N1Cc2[nH]nc(NC(=O)c3ccc(N4CCN(C)CC4)cc3)c2C1 (2.5 µM)	0
CCc1cncnc1N1CCN(Cc2nc3ccc(C(F)(F)F)cc3[nH]2)CC1 (10 µM)	0
COc1cc(-c2cn[nH]c2)ccc1C(=O)Nc1ccc2c(c1)CCNCC2 (10 µM)	0
Cn1cc2cc(C(F)(F)c3nnc4ccc(-c5cnn(C6CC6)c5)nn34)c(F)cc2n1 [Bozitinib] (10 µM)	0
O=Nc1c2[nH]c3ccccc3nc-2c2ccccc12 [IQ-1S (free acid)] (2.5 µM)	0
CCN(CC)c1cc2oc(=O)c(-c3nc4ccccc4o3)cc2cc1C (2.5 µM)	0
COc1cc(N2CCOCC2)ccc1NC(=O)c1csc(-c2cccnc2)n1 [IRAK inhibitor 6] (10 µM)	0
CNc1nc(Nc2cn(C(C)(C)C#N)nc2C)ncc1C(F)(F)F (10 µM)	0
COc1nn(C)cc1Nc1nccc(-c2c[nH]c3c(NC(=O)[C@@H](C)N4CCN(C)CC4)cccc23)n1 (10 µM)	0
N#Cc1ccnc(Nc2cc(C3CCN(C4COC4)CC3)cc(N3CCC(F)(F)C3)n2)c1 (2.5 µM)	0
Cc1cccc2c3c(ccc12)C(=O)C1=C(OCC1C)C3=O (configuration not stated) [Dihydroisotanshinone I] (2.5 µM)	0
CNc1nc(Nc2ccc(C(=O)N3CCOCC3)cc2OC)ncc1Cl (2.5 µM)	0
CCN(CC)c1ccc2cc(-c3nc4cc(C)ccc4o3)c(=O)oc2c1 (10 µM)	0
COc1ccccc1C(=O)/C=C/c1ccccc1C(=O)O (10 µM)	0
CC(=O)N1CCC(c2cc(-c3ccc(NC(=O)c4cccn(-c5ccc(F)cc5)c4=O)cc3F)c3c(N)ncnn23)CC1 (0.5 µM)	0
O[C@@H]1CO[C@H]2[C@@H]1OC[C@H]2Oc1nc2nc(-c3ccc(-c4ccccc4)cc3)c(Cl)cc2[nH]1 (10 µM)	0

Two entries from above, as comma-separated lines:
SMILES,number of time points
N#CC(c1ccnc(OCc2ccc(CN3CCOCC3)cc2)n1)c1nc2ccccc2s1 (configuration not stated) [Bentamapimod] (2.5 µM),0
COc1ccccc1C(=O)/C=C/c1ccccc1C(=O)O (10 µM),0
